From article PMC10166801
These are yes or no findings as the source states them, for the method shown. For some assays here: Binding seen in cells or lysates may run through a third protein. Some entries that bind do so weakly or less than the wild type. Values belong to the molecule of their own block, whether it stands above or below them.

By UniProt entry, the sequences of proteins in these tests, tags left out. Residues count along the entry.
UniProt P28906, residues 32-385: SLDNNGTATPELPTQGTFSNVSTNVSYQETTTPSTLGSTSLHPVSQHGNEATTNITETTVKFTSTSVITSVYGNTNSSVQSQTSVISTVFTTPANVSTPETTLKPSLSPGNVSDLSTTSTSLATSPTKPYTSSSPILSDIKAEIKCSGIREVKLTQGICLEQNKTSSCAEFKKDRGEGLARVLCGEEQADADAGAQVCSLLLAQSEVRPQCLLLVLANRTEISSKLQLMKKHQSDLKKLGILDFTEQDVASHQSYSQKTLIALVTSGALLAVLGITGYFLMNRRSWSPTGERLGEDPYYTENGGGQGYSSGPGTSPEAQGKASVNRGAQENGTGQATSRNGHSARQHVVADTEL

Assays:
[1] = biological target: T1, recombinant soluble E-selectin construct (rE-selectin-IgG) (UniProt P16581); experiment: pull-down; rE-selectin-IgG on Protein G Dynabeads, lysate of 100 million KG1a-derived exosomes, overnight at 4°C, 2 mM calcium also in the washes; western blot for each ligand; only the target purified
T1 sequence: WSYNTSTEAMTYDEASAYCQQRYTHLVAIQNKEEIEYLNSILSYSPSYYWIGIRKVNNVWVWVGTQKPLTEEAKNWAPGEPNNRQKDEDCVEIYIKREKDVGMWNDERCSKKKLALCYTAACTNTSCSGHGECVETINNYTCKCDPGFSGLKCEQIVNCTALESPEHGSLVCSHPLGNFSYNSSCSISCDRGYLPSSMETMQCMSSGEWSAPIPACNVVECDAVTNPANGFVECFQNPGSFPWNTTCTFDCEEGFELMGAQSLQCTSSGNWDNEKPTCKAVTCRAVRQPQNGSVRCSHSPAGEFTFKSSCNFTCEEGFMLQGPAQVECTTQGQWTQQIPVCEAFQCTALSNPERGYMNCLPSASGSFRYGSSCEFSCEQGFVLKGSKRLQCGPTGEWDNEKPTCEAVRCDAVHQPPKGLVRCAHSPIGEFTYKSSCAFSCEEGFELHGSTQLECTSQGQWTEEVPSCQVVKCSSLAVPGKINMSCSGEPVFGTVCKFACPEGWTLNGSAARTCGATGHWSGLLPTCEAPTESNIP

[2] = biological target: CD34 of KG1a-derived exosomes (human (endogenous in KG-1a)) (UniProt P28906); experiment: far-Western, overlay or dot blot; each ligand immunoprecipitated with its antibody from lysates of KG1a-derived exosomes, resolved on a gel and blotted with rE-selectin-IgG; only the binder purified

binding [1]: binds
Molecule: CD34 of KG1a-derived exosomes (from UniProt P28906 32-385)

binding [2]: binds
B1: recombinant soluble E-selectin construct (rE-selectin-IgG) (Fc fusion, UniProt P16581 22-556)
chain: T1 sequence
